Test results: paper doi:10.1101/2020.11.22.393603 (bioRxiv, 2020)
These are yes or no findings as the source states them, for the method shown. Binding seen in cells or lysates may run through a third protein. Where a sequence is shown, tags or fusion partners need not be part of it.

Target: T1, LSD1-sGFP (35S:LSD1-sGFP, N. benthamiana) (Arabidopsis thaliana) (UniProt P94077)
T1 sequence: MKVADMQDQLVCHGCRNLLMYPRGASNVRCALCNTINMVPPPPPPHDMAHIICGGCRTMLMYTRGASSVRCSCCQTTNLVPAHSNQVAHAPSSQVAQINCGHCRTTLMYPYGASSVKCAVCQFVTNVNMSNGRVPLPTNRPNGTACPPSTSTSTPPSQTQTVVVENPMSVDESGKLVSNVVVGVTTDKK
Assay: co-IP

binding: no binding
Substance: GLK1ΔCT-Myc (Arabidopsis thaliana) (domain or fragment)
